Source: patent US10428082B2, “Triazole derivatives of melampomagnolide B and methods of use thereof” (BioVentures, LLC, priority 2016, dated 2019)
Some entries share one result that the patent states for a list of compounds. For at least one compound, name, drawing or mass did not settle the structure.

Test system: NCI panel of 60 human cancer cell lines
Assay: NCI 60 growth inhibition, ranges over groups of cell lines
Type: cell-based
Conditions: several cell lines in the NCI 60 cell panel
Description: The above triazole derivatives of melampomagnolide B were evaluated for growth inhibitory properties against an NCI panel of 60 human cancer cell lines derived from nine human cancer cell types, grouped into disease sub-panels that represent leukemia, lung, colon, central nervous system (CNS), melanoma, renal, ovary, breast, and prostate cancer cells. Growth inhibitory (GI50) effects were measured as a function of the variation of optical density as a percentage of control.

C=C1C(=O)O[C@H]2[C@H]1CC/C(Cn1cc(-c3cc(C)c(C)cc3C)nn1)=C\CC[C@@]1(C)O[C@@H]21 [JVM 4-50]
GI50: 200 to 990 nM
